Measurements as given in patent US20250101108A1, “METHODS TO ENHANCE THERAPEUTIC EFFICACY IN MELANOMA VIA MODULATION OF CELL SURFACE PD-L1/L2” (THE REGENTS OF THE UNIVERSITY OF CALIFORNIA, priority 2021, published 2025).
These are yes or no findings as the source states them, for the method shown. In cells and extracts the contact can be indirect. Some results given as binding are weak or reduced against the parent protein; the word gives no strength. One block for each substance: values may come before it.

Chains of the proteins cited; added tags and fusions are not shown. Residues count along the entry.
UniProt Q9NZQ7, residues 19-290: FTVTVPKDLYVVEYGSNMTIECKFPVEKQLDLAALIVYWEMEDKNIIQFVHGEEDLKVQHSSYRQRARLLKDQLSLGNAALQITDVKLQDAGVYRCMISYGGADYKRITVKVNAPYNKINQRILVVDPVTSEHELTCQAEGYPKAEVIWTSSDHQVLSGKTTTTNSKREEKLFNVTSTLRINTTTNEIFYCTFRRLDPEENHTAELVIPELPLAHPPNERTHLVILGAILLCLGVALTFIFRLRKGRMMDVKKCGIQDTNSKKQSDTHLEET
UniProt Q9BQ51, residues 20-273: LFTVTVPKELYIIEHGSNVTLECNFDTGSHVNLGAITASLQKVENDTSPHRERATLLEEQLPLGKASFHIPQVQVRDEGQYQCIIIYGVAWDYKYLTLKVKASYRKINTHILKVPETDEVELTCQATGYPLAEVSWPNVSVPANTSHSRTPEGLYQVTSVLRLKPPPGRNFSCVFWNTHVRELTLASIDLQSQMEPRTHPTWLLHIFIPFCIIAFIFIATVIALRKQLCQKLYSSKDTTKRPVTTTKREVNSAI
UniProt Q96J02, residues 2-903: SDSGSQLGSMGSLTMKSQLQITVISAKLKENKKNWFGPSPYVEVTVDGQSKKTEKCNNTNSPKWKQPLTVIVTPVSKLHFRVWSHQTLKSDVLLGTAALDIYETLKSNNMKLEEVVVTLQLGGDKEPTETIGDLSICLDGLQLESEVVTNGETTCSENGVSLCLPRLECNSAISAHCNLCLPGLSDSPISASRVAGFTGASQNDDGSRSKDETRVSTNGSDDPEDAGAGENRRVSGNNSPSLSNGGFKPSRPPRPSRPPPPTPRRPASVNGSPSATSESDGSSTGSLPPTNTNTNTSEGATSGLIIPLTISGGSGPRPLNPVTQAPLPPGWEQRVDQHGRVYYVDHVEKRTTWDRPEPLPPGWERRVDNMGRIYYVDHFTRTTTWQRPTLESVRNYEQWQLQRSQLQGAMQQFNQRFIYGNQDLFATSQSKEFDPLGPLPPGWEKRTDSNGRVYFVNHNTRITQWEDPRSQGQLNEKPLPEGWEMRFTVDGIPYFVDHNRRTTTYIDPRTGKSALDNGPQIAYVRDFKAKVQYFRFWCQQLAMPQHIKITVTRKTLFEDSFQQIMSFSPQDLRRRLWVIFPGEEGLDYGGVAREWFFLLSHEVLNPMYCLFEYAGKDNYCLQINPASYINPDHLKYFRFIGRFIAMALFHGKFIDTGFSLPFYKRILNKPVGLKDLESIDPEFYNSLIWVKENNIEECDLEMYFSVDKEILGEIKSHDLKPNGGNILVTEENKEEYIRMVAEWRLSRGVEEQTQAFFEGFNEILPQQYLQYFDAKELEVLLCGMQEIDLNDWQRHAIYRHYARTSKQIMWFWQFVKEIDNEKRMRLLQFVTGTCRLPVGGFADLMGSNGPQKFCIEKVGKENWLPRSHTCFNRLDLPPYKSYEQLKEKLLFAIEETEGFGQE

Tests used:
PD-L1 (human) [1] = target: PD-L1 (human) (UniProt Q9NZQ7); test: co-immunoprecipitation with anti-PD-L1 antibody, Western blot, M238 R1 and H358 cells
PD-L2-FLAG (human) [2] = target: PD-L2-FLAG (human) (UniProt Q9BQ51); test: IP-MS and co-immunoprecipitation (FIGS. 1A, 1D)
PD-L2-FLAG (human) [3] = target: PD-L2-FLAG (human) (UniProt Q9BQ51); test: summary sentence of Example 1 (IP-MS, co-immunoprecipitation)
PD-L1 (human) [4] = target: PD-L1 (human) (UniProt Q9NZQ7); test: co-immunoprecipitation with anti-FLAG M2 beads, Western blot, HEK 293T cells
PD-L2-FLAG (human) [5] = target: PD-L2-FLAG (human) (UniProt Q9BQ51); test: co-immunoprecipitation with anti-HA beads, Western blot, HEK 293T cells

binding (PD-L1 (human) [1]): binds
binding (PD-L2-FLAG (human) [2]): binds
binding (PD-L2-FLAG (human) [3]): binds
Substance: E3 ligase ITCH (from UniProt Q96J02 2-903) (enzyme)

binding (PD-L1 (human) [4]): binds
Substance: ITCH-FLAG (from UniProt Q96J02 2-903) (enzyme)

binding (PD-L2-FLAG (human) [5]): binds
Substance: ITCH-HA (from UniProt Q96J02 2-903) (enzyme)
